Experimental data taken from PubChem BioAssay AID652054 (National Center for Advancing Translational Sciences (NCATS), 2013).
The whole screen tested about 360,000 compounds, of which about 9,100 (2.5%) were called active. This list was built around the results that the source calls inconclusive (neither active nor inactive); the mix of calls is not that of the screen. No stated cut-off is given here; in the data, active means max response below about -50%; inconclusive means no clear call, values can overlap the other calls; inactive means above that.

By UniProt entry, the sequences of proteins in these tests, tags left out.
UniProt P35462, whole entry, looked up: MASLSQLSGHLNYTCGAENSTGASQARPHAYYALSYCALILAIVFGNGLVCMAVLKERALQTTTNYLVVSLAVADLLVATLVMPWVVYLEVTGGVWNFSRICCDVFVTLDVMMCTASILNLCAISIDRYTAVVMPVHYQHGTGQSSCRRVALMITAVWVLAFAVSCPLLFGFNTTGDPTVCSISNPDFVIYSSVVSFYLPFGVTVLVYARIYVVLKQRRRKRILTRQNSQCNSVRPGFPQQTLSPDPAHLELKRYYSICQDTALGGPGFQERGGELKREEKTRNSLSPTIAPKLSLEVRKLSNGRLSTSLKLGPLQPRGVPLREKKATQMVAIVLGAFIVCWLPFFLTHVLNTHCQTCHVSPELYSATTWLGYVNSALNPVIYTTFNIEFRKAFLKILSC

What follows are molecules tested against D(3) dopamine receptor (Homo sapiens) (UniProt P35462) (assay: qHTS of D3 Dopamine Receptor Antagonist: qHTS). Conditions: D3R cells, DiscoveRx beta-arrestin luminescence, antagonist mode; stronger effect = lower value.
Outline: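 Cells plated overnight at 1500 cells/well, then exposed to library compounds with dopamine controls for 90 minutes at 37 degrees C. DiscoveRx reagent added for 30–60 minutes at room temperature; luminescence read, quantitative HTS format.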
On the % scale 0 is the no-effect control and ±100 the full control effect.

| SMILES | max response, negative = inhibition |
| --- | --- |
| COc1ccc2cc(-c3cc(C(=O)O)c4ccccc4n3)ccc2c1 | inconclusive: -42.8% |
| Nc1ccc2c(c1)OC1(CCCC1)O2 | inactive: -18.2% |
| CCc1nc2c(OCc3cccc(Cl)c3)cccn2c1N(C)C(=O)c1ccncc1 | inconclusive: -32.8% |
| COc1ccc(Cl)cc1N(C(=O)c1ccco1)C(C(=O)NC1CCCC1)c1ccco1 (stereo not given) | inactive: -14.5% |
| CC(=O)c1ccc(NC(=S)N2CCN(c3cccc(Cl)c3)CC2)cc1 | inactive: -2.3% |
| COc1ccc(C(=O)NC2CCC(O)CC2)cc1S(=O)(=O)NCc1ccc(Cl)cc1 (stereo not given) | inconclusive: -38.2% |
| NS(=O)(=O)c1ccc(Nc2ccc3nonc3c2[N+](=O)[O-])cc1 | inconclusive: -37.9% |
| CCOC(=O)c1cc(-c2csc(Nc3c(C)cc(C)cc3C)n2)on1 | inconclusive: -32.2% |
| CC1CC2(CCCCC2)Nc2c1ccc1ccccc21 (stereo not given) | inactive: 0% |
| c1ccc(OCCN2C3=NCCN3c3ccccc32)cc1 | inconclusive: -47.2% |
| COC(=O)c1c(NC(=O)c2ccco2)sc2c1C(C(=O)OC)CC2 (stereo not given) | active: -50.1% |
| Cc1cc(C(=O)N2CCC2(C)C(=O)NS(=O)(=O)c2ccccc2Cl)nn1C (stereo not given) | inactive: 0% |
| Cc1oc(-c2cccs2)nc1CN1CCC(CO)(CCOc2ccccc2)CC1 | active: -89% |
| O=S(=O)(c1ccc(F)cc1)N1CCN(CC(O)COCC2CCCO2)CC1 (stereo not given) | inconclusive: -38.9% |
| Cc1nn(-c2cc(Cl)ccc2Cl)c(C)c1C(=O)O | inactive: 5.56% |
| Cc1cc(-c2ccccc2)cc(-c2ccccc2)[n+]1C | inconclusive: -31.7% |
| CCCCNC(=O)C1(C)CCN1C(=O)c1ccc2c(c1)CCO2 (stereo not given) | inconclusive: -38.9% |
| CS(=O)(=O)c1ccc(Cl)c(NC(=O)CCl)c1 | inactive: 0% |
| Cc1ccc(NC(=O)c2noc3c2CC(C(C)(C)C)CC3)cc1 (stereo not given) | inactive: -12.8% |
| NC(=O)c1ncn([C@@H]2O[C@H](CNCc3ccc(-c4cc(C(F)(F)F)ccc4Cl)o3)[C@@H](O)[C@H]2O)n1 | active: -51.9% |
| Cc1cc(C)c(OCCOCCN2CCN(C)CC2)c(Cl)c1 | inconclusive: -37.6% |
| Oc1ccccc1CNc1nc2ccccc2n1CCN1CCCCC1 | active: -74.2% |
| CCCN(CC(=O)Nc1ccc(NC(C)=O)cc1)CC(=O)Nc1ccc(F)c(F)c1F | inactive: 2.41% |

Reprinted at random: 4 records from the list, in no set order.

| SMILES | max response, negative = inhibition |
| --- | --- |
| Cc1cc(C(=O)N2CCC2(C)C(=O)NS(=O)(=O)c2ccccc2Cl)nn1C (stereo not given) | inactive: 0% |
| COc1ccc2cc(-c3cc(C(=O)O)c4ccccc4n3)ccc2c1 | inconclusive: -42.8% |
| COc1ccc(Cl)cc1N(C(=O)c1ccco1)C(C(=O)NC1CCCC1)c1ccco1 (stereo not given) | inactive: -14.5% |
| CC1CC2(CCCCC2)Nc2c1ccc1ccccc21 (stereo not given) | inactive: 0% |

Additional structures:

| SMILES | max response, negative = inhibition |
| --- | --- |
| Cc1ccccc1NS(=O)(=O)c1ccc(C(=O)NCC(c2ccccc2)N(C)C)cc1 (stereo not given) | inconclusive: -43.9% |
| CCOC(=O)/C=C/C(=O)OCC(=O)Nc1c(Cl)cccc1Cl | inconclusive: -30.2% |
| O=C(Cn1c(Cn2c(-c3cnccn3)nc3ccccc32)nc2ccccc21)c1ccc(OC(F)(F)F)cc1 | inactive: 5.74% |
| Clc1cccc(CNc2ccn3nc(-c4ccccc4Cl)cc3n2)c1 | inactive: 0% |
| O=C(Nc1ccc2c(c1)OCO2)N1CCN(C/C=C/c2ccccc2)CC1 | inconclusive: -30.9% |
| CC(=O)c1cccc(N=Cc2c(O)c3ccccc3oc2=O)c1 | inconclusive: -40% |
| CC(Oc1ccccc1)C(=O)Nc1ccc(S(=O)(=O)N2CCCC2)cc1 (stereo not given) | inconclusive: -31.9% |
| Nc1c2ccccc2nc2ccccc12 | inconclusive: -39.4% |
| COc1ccc(CCN(C(=O)C(F)(F)F)C(C(=O)NC2CCCCC2)c2cccs2)cc1 (stereo not given) | inactive: 11% |
| CN(CC(=O)Nc1ccc(Cl)c(C(F)(F)F)c1)C(=O)C1CSC2(C)CCC(=O)N12 (stereo not given) | inactive: 5.67% |
| COc1ccccc1NS(=O)(=O)c1cc(C(=O)NCC(c2ccco2)N2CCCCC2)ccc1C (stereo not given) | inconclusive: -33.6% |
| CCOc1nc(-c2ccccc2)ccc1-c1noc(COc2ccccc2)n1 | inconclusive: -34.5% |
| O=C1CC=Nc2ccc([N+](=O)[O-])cc21 | inactive: -6.68% |
| O=C(NC1CCN(Cc2ccccc2)CC1)c1cc(Br)c(Br)[nH]1 | active: -86.7% |
| CCn1c(C)c(C(C)=O)c(N2CCN(c3cccc(Cl)c3)CC2)nc1=S | inconclusive: -30.8% |
| O=C(NCc1ccco1)N1c2ccccc2Sc2ccccc21 | inconclusive: -33.7% |
| O=C(NCCN1CCCC1)c1cccc(Cl)c1 | inconclusive: -32.1% |
| COc1ccc(-n2c(CNC(=O)c3cc(OC)c(OC)c(OC)c3)n[nH]c2=S)cc1 | inconclusive: -39.1% |
| CN(C)c1nc(N/N=C/c2c[nH]c3ccccc23)nc(N2CCOCC2)n1 | inactive: -8.52% |
| COc1ccc(-c2csc(C(C)(NC(C)=O)c3ccccc3)n2)cc1 (stereo not given) | inconclusive: -31% |
| C=CCc1c(Cl)nc(C)nc1NCc1ccccc1 | inactive: 9% |
| Cc1noc(C)c1Cc1ccc(O)cc1 | inconclusive: -49.7% |
| COc1ccc(S(=O)(=O)N2CCNCC2)cc1 | inconclusive: -38% |

| SMILES | max response, negative = inhibition |
| --- | --- |
| CC1CCCCC1NC(=S)Nc1cccc(S(=O)(=O)N(C)C)c1 (stereo not given) | inconclusive: -33.8% |
| O=C(Nc1ccc(F)c([N+](=O)[O-])c1)C1CC(=O)N(Cc2ccccc2)C1 (stereo not given) | inactive: 16.3% |
| COc1cc2c(C)nc(C)c(C#N)c2cc1OC | inconclusive: -49.4% |
| COc1ccc(NC(=O)CCCNS(=O)(=O)c2cccs2)cc1 | inactive: 14.2% |
| C=CC(=O)NCCCc1cc(C(C)(C)C)c(O)c(C(C)(C)C)c1 | inactive: 0.589% |
| O=C1OCCN1C(=O)[C@H]1[C@H](c2ccc(F)cc2)C(c2ccc(F)cc2)=NN1c1ccccc1 | inconclusive: -30.1% |
| COc1ccc(N2CCN(CCCNC(=O)C(=O)c3c[nH]c4ccccc34)CC2)cc1 | inconclusive: -37% |
| N=c1c(S(=O)(=O)c2ccccc2)cc2c(=O)n3ccccc3nc2n1Cc1ccco1 | inconclusive: -32.9% |
| CCOc1ccc(S(=O)(=O)Nc2cccc(C(=O)N(C)CC(=O)Nc3cccc(OC)c3)c2)cc1 | inconclusive: -40.8% |
| Cc1ccccc1-c1cc(C(=O)O)n(CC2CC(c3cccnc3)=NO2)n1 (stereo not given) | inconclusive: -36.4% |
| O=C(Nc1ccccc1C(=O)NC(Cc1c[nH]c2ccccc12)C(=O)O)c1ccccc1 (stereo not given) | inconclusive: -39.3% |
| CCc1c(C)sc(NC(=O)C2CC2c2ccccc2)c1C(N)=O (stereo not given) | inactive: 7.72% |
| Cc1c(C(=O)NCC(c2ccco2)N2CCCC2)oc2ccc(Cl)cc12 (stereo not given) | active: -65.1% |
| COc1ccc(Cl)cc1N(CC(=O)N1CCN(Cc2ccccc2)CC1)S(C)(=O)=O | active: -56.6% |
| Cc1ccc(-c2cccc(C(=O)NCc3ccccc3)n2)c2ccccc12 | active: -59% |
| O=C(/C=C\c1ccccc1)Oc1cccc2cccnc12 | active: -58.6% |
| Oc1cc(O)c2c(c1)O[C@H](c1ccc(O)c(O)c1)[C@H](O)C2 | inconclusive: -35.1% |
| COc1cc(/C=N/Nc2snc(SC)c2C#N)cc(OC)c1OC | inactive: 26.1% |
| CC(C)(C)c1ccc(-c2nc(C#N)c(NCc3cccnc3)o2)cc1 | inactive: 19.3% |
| N#Cc1c(NC(=O)c2cnccn2)sc2c1CCCC2 | inactive: 4.4% |
| CC(C)(C)n1nc2c(c1NC(=O)c1ccc(C(F)(F)F)cc1)CS(=O)(=O)C2 | inactive: -5.29% |
| Cc1cccc(CN2CCN(Cc3ccc(-n4cccn4)cc3)CC2CCO)n1 (stereo not given) | inconclusive: -31.9% |
| NC(=O)c1ccc(N2CCN(S(=O)(=O)c3ccccc3)CC2)c([N+](=O)[O-])c1 | inactive: -5.01% |

| SMILES | max response, negative = inhibition |
| --- | --- |
| COc1ccc(C(=O)/C(C#N)=N/Nc2ccccc2[N+](=O)[O-])cc1 | inconclusive: -36.9% |
| CC(CN1CCN(Cc2ccccc2)CC1)OC(=O)c1ccco1 (stereo not given) | inconclusive: -32.2% |
| CCN(CC)S(=O)(=O)c1ccc(C(=O)Nc2ccc3c(c2)OCCO3)cc1 | inconclusive: -46.9% |
| O=C(c1ccoc1)N1CCC2(CCCN(Cc3ccc(F)c(F)c3)C2)C1 (stereo not given) | inconclusive: -30.5% |
| COc1ccc(C)cc1N(C(=O)c1ccccc1F)c1nc2ccccc2s1 | inconclusive: -47.3% |
| CN(C)CCCOC(=O)N1c2ccccc2C=Cc2ccccc21 | active: -61.5% |
| CC(C)(C)n1[nH]c2c3c(ccc2c1=O)C(=O)c1ccccc1C3=O | inactive: -17% |
| Cc1ccc2c(c1)c1c(n2CC(O)CN2CCC(C)CC2)CCCC1 (stereo not given) | inconclusive: -49.7% |
| COc1ccc(OCC(O)CNCCOc2ccccc2OC)c(C(C)(C)C)c1 (stereo not given) | active: -80.7% |
| COc1ccccc1CNC(=O)c1cc(-c2ccccc2)nn1CC1CC(c2cccc([N+](=O)[O-])c2)=NO1 (stereo not given) | inactive: 7.63% |
| COCCNC(=S)N1CCC2CC1c1cc(-c3ccc4c(c3)OCO4)ccc12 (stereo not given) | inconclusive: -43.9% |
| CSc1ccc(S(=O)(=O)Nc2c(C)cccc2C)cc1 | active: -166% |
| COc1ccccc1Nc1ccncc1[N+](=O)[O-] | inactive: 2.59% |
| O=C(c1ccccc1Sc1cccc2ccccc12)N1CCOCC1 | inactive: -21.4% |
| COc1ccccc1N1CCN(C2CCCN(C(=O)c3oc(C)cc3C)C2)CC1 (stereo not given) | inconclusive: -46.7% |
| CCn1c(COC(=O)CNC(=O)c2ccccc2F)nc2cc(S(=O)(=O)N(C)C)ccc21 | inactive: 0% |
| CCc1ccc(OCC(=O)Nc2ccncc2)c(Br)c1 | inactive: 2.42% |
| Cc1cc(=O)oc2c1ccc1oc(/C(=N/O)c3ccccc3)c(C)c12 | inconclusive: -36.9% |
| CCCCc1cc(=O)oc2cc(OCC(=O)N3C[C@H]4C[C@@H](C3)c3cccc(=O)n3C4)ccc12 | inconclusive: -30.7% |
| O=C(NNC1=C(C(=O)C(F)(F)F)CCC1)c1ccccc1O | inconclusive: -48.1% |
| O=C(NC(=S)Nc1ccc(Cl)c(C(=O)O)c1)c1cncc(Br)c1 | inconclusive: -38% |
